Measured values taken from US6818646B2 (priority 2000, dated 2004).
The structures given here were assigned with low confidence; some may be wrong.

Molecular target: PDEV (Homo sapiens, UniProt O76074)
Experiment: PDE assay: inhibition of PDEV isolated from human tissue
Format: biochemical
Conditions: PDEV inhibitory activity

**Q.** Which IC50 does the source give for `O=C(c1ccc(-c2ccc3c(c2)OCO3)o1)N1Cc2c([nH]c3ccccc3c2=O)C1c1ccc2c(c1)OCO2` (stereo not shown) here?
**A.** Its IC50 is 1.97 nM.

**Q.** `O=C(c1ccc(-c2cccc([N+](=O)[O-])c2)o1)N1Cc2c([nH]c3ccccc3c2=O)C1c1ccc2c(c1)OCO2` (stereo not shown) was tested. Which IC50 did it give?
**A.** Its IC50 is 0.812 nM.

**Q.** `Cc1ccc(-c2ccc(C(=O)N3Cc4c([nH]c5ccccc5c4=O)C3c3ccc4c(c3)OCO4)o2)cc1` (stereo not shown) was tested. Which IC50 did it give?
**A.** Its IC50 is 4.01 nM.

**Q.** With `N#Cc1ccc(-c2ccc(C(=O)N3Cc4c([nH]c5ccccc5c4=O)C3c3ccc4c(c3)OCO4)o2)cc1` (stereo not shown) as the compound, how does the IC50 read?
**A.** Its IC50 is 1.19 nM.
